Where two headings read alike, the source gives them in different places. These are yes or no findings as the source states them, for the method shown. Some binding calls cover weakened binding; strength is not graded here.
Columns and labels:
[1] = biological target: T1, Mrs6 (Rab escort protein) (S. cerevisiae) (UniProt P32864); test: two-hybrid; Gal4 system, pGBDU-C1 bait and pGAD-C1 prey in strain PJ694A; growth on S-D-URA-LEU media lacking histidine and containing ATA
T1 sequence: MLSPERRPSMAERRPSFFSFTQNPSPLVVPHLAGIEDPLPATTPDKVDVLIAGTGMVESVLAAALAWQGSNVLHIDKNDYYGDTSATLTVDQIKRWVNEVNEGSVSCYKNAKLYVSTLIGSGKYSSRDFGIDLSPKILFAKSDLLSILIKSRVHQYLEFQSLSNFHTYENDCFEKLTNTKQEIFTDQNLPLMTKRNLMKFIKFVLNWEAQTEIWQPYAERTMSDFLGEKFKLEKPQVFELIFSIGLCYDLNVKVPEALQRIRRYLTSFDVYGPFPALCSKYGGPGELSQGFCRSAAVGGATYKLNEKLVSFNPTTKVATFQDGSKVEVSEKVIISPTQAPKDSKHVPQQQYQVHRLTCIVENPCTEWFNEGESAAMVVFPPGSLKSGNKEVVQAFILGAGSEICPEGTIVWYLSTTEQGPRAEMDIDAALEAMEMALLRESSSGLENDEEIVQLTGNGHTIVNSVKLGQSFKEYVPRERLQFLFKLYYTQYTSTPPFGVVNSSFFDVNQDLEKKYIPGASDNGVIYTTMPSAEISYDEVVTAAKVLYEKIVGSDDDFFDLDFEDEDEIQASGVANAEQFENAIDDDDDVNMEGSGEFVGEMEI

By UniProt entry, the sequences of proteins in these tests, tags left out.
UniProt P19073: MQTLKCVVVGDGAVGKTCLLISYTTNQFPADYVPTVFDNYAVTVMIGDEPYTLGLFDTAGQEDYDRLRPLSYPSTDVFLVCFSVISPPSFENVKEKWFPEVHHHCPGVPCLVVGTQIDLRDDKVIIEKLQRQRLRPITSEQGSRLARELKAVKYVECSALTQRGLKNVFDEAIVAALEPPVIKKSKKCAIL

[2] = biological target: T1, Mrs6 (Rab escort protein) (S. cerevisiae); test: as above; remark: listed apart in the source

In the case of “Cdc42 (Rho-type GTPase) (from UniProt P19073 1-191)”, the binding [1] is reported as “no binding”.

B1: Ste20 (PAK kinase, MAPKKKK) (protein, UniProt Q03497 1-939)
chain: MSNDPSAVSELPDKDSLDNGISNDNERAMGGNGDGGDGLRLPRTTGTLNVNALQKGTNAAHEAGGYKSMDPAKNAETTNDDDNNVVSLDDPIQFTRVSSSSVISGMSSSMSPHSNIDETKSLEAVTPNINTSNITPDHSADNTFSTINASESDHQFNDTLLSKLSLTDSTETIENNATVKHQQPVASSTVNSNKSSTDIRRATPVSTPVISKPSMTTTPRQINSASHSLSNPKHKQHKPKVKPSKPEAKSKPVSVKKSFPSKNPLKNSSPPKKQTEKSYYSSSSKKRKSGSNSGTLRMKDVFTSFVQNIKRNSQDDKRASSSSNNSSSSSITTALRISTPYNAKHIHHVGVDSKTGEYTGLPEEWEKLLTSSGISKREQQQNMQAVMDIVKFYQDVTETNGEDKMFKTFNTTTGLPGSPQVSTPPANSFNKFPPSTSDSHNYGSRTGTPMSNHVMSPTLNTDSSSANGKFIPSRPAPKPPSSASASAPIIKSPVMNSAANVSPLKQTHAPTTPNRTSPNRSSISRNATLKKEEQPLPPIPPTKSKTSPIISTAHTPQQVAQSPKAPAQETVTTPTSKPAQARSLSKELNEKKREERERRKKQLYAKLNEICSDGDPSTKYANLVKIGQGASGGVYTAYEIGTNVSVAIKQMNLEKQPKKELIINEILVMKGSKHPNIVNFIDSYVLKGDLWVIMEYMEGGSLTDVVTHCILTEGQIGAVCRETLSGLEFLHSKGVLHRDIKSDNILLSMEGDIKLTDFGFCAQINELNLKRTTMVGTPYWMAPEVVSRKEYGPKVDIWSLGIMIIEMIEGEPPYLNETPLRALYLIATNGTPKLKEPENLSSSLKKFLDWCLCVEPEDRASATELLHDEYITEIAEANSSLAPLVKLARLKKVAENMDADEDNDDDNDNEHINKTNNCDDNNDSKETVNLDVTEDDKQK
For B1, the binding [2] was “binds”.

B2: Ste7 (MAPKK) (protein, UniProt P06784 1-515)
chain: MFQRKTLQRRNLKGLNLNLHPDVGNNGQLQEKTETHQGQSRIEGHVMSNINAIQNNSNLFLRRGIKKKLTLDAFGDDQAISKPNTVVIQQPQNEPVLVLSSLSQSPCVSSSSSLSTPCIIDAYSNNFGLSPSSTNSTPSTIQGLSNIATPVENEHSISLPPLEESLSPAAADLKDTLSGTSNGNYIQLQDLVQLGKIGAGNSGTVVKALHVPDSKIVAKKTIPVEQNNSTIINQLVRELSIVKNVKPHENIITFYGAYYNQHINNEIIILMEYSDCGSLDKILSVYKRFVQRGTVSSKKTWFNELTISKIAYGVLNGLDHLYRQYKIIHRDIKPSNVLINSKGQIKLCDFGVSKKLINSIADTFVGTSTYMSPERIQGNVYSIKGDVWSLGLMIIELVTGEFPLGGHNDTPDGILDLLQRIVNEPSPRLPKDRIYSKEMTDFVNRCCIKNERERSSIHELLHHDLIMKYVSPSKDDKFRHWCRKIKSKIKEDKRIKREALDRAKLEKKQSERSTH
B2 was tested, and the binding [2] was “binds”.

B3: Ssk1 protein (protein, UniProt Q07084 1-712)
chain: MLNSALLWKVWLRIDNSTDEVNQPIAVQFDEIDTVDDLKSRFFQKLSSTRWREINDNASIAIGLYAPKFDNQADNTSSNNTNDNSCRSKSNGAGSGANLSVNSNTKSSVSPTAGSFGLSKDLAKDRNVLQHPKPTQKRGALYDAFAAVPTVAATTNVDFPPNEAPMLSPQRPYSTSPKQFPATTKSPLLRFASVSPYPKFHSDNQIMASAGLTYVSPHNKNKYTRPLIRKGLNFTTESVNDCTYKIIFEPDELAINIYKELFGTMGSQPASQPLLIFSNVNLRQDVPPLDILNVVDYVPTNEEISQQKTQPTDHGAVGVFHLDDHISPGEQGLKQTIGDKADLKGKDGNSSPQEFKLITDEEQLRRASQELKDEEKDAESPWQAILLLPKGYKGGVDFRNKPVAHTDSSFNNEDTITHSELEVNTGSPSQESGSLNEAGIGITQPMSEVQRRKEDVTPASPILTSSQTPHYSNSLYNAPFAVSSPPDPLPNLFTTTSEKVFPKINVLIVEDNVINQAILGSFLRKHKISYKLAKNGQEAVNIWKEGGLHLIFMDLQLPVLSGIEAAKQIRDFEKQNGIGIQKSLNNSHSNLEKGTSKRFSQAPVIIVALTASNSQMDKRKALLSGCNDYLTKPVNLHWLSKKITEWGCMQALIDFDSWKQGESRMTDSVLVKSPQKPIAPSNPHSFKQATSMTPTHSPVRKNSNLSPTQIEL
In the case of B3, the binding [2] is reported as “binds weakly”.
